# At least one compound was matched to its structure with a doubt left.
# The chains behind the UniProt entries cited, without tags or fusion partners. Residues count along the entry.
# UniProt Q7RTX0, 21-852 C757R: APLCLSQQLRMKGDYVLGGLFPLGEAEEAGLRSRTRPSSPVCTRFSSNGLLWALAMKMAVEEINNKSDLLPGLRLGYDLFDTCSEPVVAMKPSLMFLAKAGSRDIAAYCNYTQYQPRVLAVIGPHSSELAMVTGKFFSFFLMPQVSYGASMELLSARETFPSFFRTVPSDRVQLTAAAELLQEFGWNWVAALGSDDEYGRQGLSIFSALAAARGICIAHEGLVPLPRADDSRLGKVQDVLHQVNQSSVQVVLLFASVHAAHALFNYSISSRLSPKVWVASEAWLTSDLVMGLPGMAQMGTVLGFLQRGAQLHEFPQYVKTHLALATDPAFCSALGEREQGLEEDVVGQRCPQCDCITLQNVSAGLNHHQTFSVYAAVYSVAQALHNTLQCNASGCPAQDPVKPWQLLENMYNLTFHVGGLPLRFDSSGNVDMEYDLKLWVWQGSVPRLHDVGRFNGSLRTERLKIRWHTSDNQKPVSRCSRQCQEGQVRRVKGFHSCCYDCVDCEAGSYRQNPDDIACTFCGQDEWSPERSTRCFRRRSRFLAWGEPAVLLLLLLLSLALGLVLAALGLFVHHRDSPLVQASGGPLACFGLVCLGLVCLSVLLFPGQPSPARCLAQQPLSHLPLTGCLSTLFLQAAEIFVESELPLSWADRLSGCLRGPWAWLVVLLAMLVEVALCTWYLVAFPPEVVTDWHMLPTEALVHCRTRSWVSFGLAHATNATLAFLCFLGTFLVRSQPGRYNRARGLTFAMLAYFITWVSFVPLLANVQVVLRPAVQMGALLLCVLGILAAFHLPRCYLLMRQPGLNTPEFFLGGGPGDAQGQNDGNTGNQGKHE
# UniProt Q7RTX1, 21-841: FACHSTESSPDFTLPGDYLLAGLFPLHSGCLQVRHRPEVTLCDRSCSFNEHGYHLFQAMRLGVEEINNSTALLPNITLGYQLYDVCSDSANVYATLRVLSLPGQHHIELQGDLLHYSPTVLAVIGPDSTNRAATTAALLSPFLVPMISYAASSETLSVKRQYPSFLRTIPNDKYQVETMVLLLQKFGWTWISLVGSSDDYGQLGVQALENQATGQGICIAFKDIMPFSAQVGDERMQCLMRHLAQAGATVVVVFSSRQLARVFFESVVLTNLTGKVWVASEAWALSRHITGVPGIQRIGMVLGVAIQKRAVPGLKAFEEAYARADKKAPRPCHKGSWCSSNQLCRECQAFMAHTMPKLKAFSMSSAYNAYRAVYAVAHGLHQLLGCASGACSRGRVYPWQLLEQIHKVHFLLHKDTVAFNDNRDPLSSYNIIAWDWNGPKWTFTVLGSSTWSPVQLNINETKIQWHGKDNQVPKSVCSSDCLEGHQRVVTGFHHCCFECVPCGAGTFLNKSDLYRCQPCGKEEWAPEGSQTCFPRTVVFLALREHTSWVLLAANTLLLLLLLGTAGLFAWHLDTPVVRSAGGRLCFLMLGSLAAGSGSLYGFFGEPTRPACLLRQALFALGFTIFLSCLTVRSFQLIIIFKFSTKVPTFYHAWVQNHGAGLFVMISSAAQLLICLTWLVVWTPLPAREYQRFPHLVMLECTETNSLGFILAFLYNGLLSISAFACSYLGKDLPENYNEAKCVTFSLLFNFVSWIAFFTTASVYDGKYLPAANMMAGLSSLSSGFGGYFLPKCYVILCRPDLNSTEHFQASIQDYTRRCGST
# Molecular target: T1R1/T1R3 (Homo sapiens (Human), UniProt Q7RTX0+Q7RTX1)
# Assay: Umami enhancement assay: MSG dose response with and without compound
# Assay type: cell-based
# Details: Table 5; compound concentration not given
# Experimental: In enhancement assay experiments, a MSG dose response was run and a second MSG dose response was run with a certain amount of candidate compound at every MSG concentrations at the same time. Then, the EC50 ratio is calculated based on the following definitions: EC50 Ratio=EC50(MSG)/EC50(MSG+[Compound])
# wherein “[compound]” refers to the concentration of compound used to elicit (or enhance or potentiate) the MSG dose response. Those concentrations can vary from a pM to an mM, more preferred, from a low nM to μM.
# HEK-Gα15 cells were engineered to inducibly express T1R1/T1R3 using the GeneSwitch system (Invitrogen). pGene-derived zeocin-resistant expression vectors for human T1R1 and T1R3 (plasmid SXV603 for T1R1 and SXV611 for T1R3) and a puromycin-resistant pSwitch-derived vector that carries the GeneSwitch protein (plasmid SXV628) were linearized and cotransfected into the HEK-Gα15 cell line. Zeocin-resistant and puromycin-resistant colonies were selected, expanded, induced with variable amounts of mifepristone, and tested by calcium imaging for responses to umami taste stimuli. […] The maximal fluorescence from four independent determinations were averaged, corrected for background fluorescence measured prior to compound addition, and normalized to the response to 0.002 mM ionomycin (CALBIOCHEM).
compound,measurement,value
"CC1CCCCC1NC(=O)c1ccc(Cl)c(Cl)c1 (stereo not shown) [Compound E54, 3,4-dichloro-N-(2-methylcyclohexyl)benzamide]",Umami EC50 ratio,10.66

# Reference: US9459250B2, “Use of T1R3 venus flytrap region polypeptide to screen for taste modulators” (SENOMYX, INC., priority 2003, dated 2016)
